The structures appear in SMILES notation. Where a name gives a salt, the structure may show the parent alone. Some of the results follow. Many values rest on one well or one pass, so single values are uncertain.

The experiment concerns Drosophila melanogaster DPAGT1 (Alg7) RNAi eye model. In words: eye size Z-score vs DMSO-treated DPAGT1 model flies; higher = larger eye (suppression of DPAGT1 phenotype). Conditions: 5 uM.
For `O=C(CCCN1CCC(O)(c2ccc(Br)cc2)CC1)c1ccc(F)cc1` [Bromperidol], the “eye size Z-score” value is -0.35.
The result for `CO[C@@]1(NC(=O)Cc2cccs2)C(=O)N2C(C(=O)O)=C(COC(N)=O)CS[C@@H]21` [Cefoxitin sodium salt] reads -1.13; that for `CC(=O)c1ccc2c(c1)N(CCCN1CCC(CCO)CC1)c1ccccc1S2` [Piperacetazine], -0.5.
For the molecule `COC(=O)C1=C(C)NC(C)=C(C(=O)O[C@H]2CCN(Cc3ccccc3)C2)[C@H]1c1cccc([N+](=O)[O-])c1` [Barnidipine Hydrochloride], the “eye size Z-score” value came out at 0.26.
To `C=CCOc1ccc(CC(=O)O)cc1Cl` [Alclofenac] belongs -0.48.
On to `COc1cc2c(cc1OC)C(=O)C(CC1CCN(Cc3ccccc3)CC1)C2` (configuration not stated) [Donepezil hydrochloride], for which the “eye size Z-score” value was -0.06.
In the case of `CCCCC(CC)CN1CN(CC(CC)CCCC)CC(C)(N)C1` (configuration not stated) [Hexetidine], the “eye size Z-score” value is -0.63.
As to `CN(C)c1ccc2nc3ccc(=[N+](C)C)cc-3sc2c1` [Methylene blue], the “eye size Z-score” value came to 0.53.
For the molecule `COc1ccc(C2C(=O)c3ccccc3C2=O)cc1` [Anisindione], the “eye size Z-score” value worked out at 1.29.
As to `Cc1cccc(C)c1NC(=O)C1CCCCN1C` (configuration not stated) [Mepivacaine hydrochloride], the “eye size Z-score” value is 0.17.
Consider `CN1C(C(=O)Nc2ccccn2)=C(O)c2sccc2S1(=O)=O` [Tenoxicam], for which the “eye size Z-score” value stood at 1.1.
To `Cc1ncc([N+](=O)[O-])n1CC(O)CCl` (configuration not stated) [Ornidazole] belongs 0.71; to `C[C@]12CC[C@H]3C(=CCc4cc(O)ccc43)[C@@H]1CCC2=O` [Equilin], -0.48; to `C=C[C@H]1CN2CC[C@H]1C[C@@H]2[C@@H](O)c1ccnc2ccc(OC)cc12` [Quinidine hydrochloride monohydrate], -1.29.
To `Cn1c(=O)c2[nH]cnc2n(C)c1=O` [Aminophylline] belongs -0.03; to `Cc1ccnc2c1NC(=O)c1cccnc1N2C1CC1` [Nevirapine], 0.04; to `CN(C)CCC=C1c2ccccc2CCc2ccccc21` [Amitryptiline hydrochloride], -0.15.
For `Cc1[nH]c(=O)c(C#N)cc1-c1ccncc1` [Milrinone], the “eye size Z-score” value came out at 0.56.
The result for `COc1ccc(-c2cc(=O)c3c(O)cc(O[C@@H]4O[C@H](CO[C@@H]5O[C@@H](C)[C@H](O)[C@@H](O)[C@H]5O)[C@@H](O)[C@H](O)[C@H]4O)cc3o2)cc1O` [Diosmin] reads 0.36; that for `Cn1c(=O)cc(N2CCC[C@@H](N)C2)n(Cc2ccccc2C#N)c1=O` [Alogliptin benzoate], -0.13; that for `CCCCCCCN(CC)CCCC(O)c1ccc(NS(C)(=O)=O)cc1` (configuration not stated) [Ibutilide fumarate], 0.64.
The result for `c1ccc2[nH]c(-c3cscn3)nc2c1` [Tiabendazole] reads 0.54.

For the origin of these results see the supplement of paper PMC11542785.
